Reference: the supplement of paper PMC8728848
Some of the results follow.

Columns and labels:
Test in all cases: glycan array binding signal (z-score within array); higher = stronger binding
Settings in all cases: glycan notation: IUPAC condensed, linker removed
[1] = test system: Fuc(a1-2)Gal(b1-3)GalNAc(a1-3)[Fuc(a1-2)]Gal(b1-4)GlcNAc
How it was run: (§1)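 Arrays were curated from the Consortium for Functional Glycomics database, 3228 in total, and kept only where the protein sequence was available. Binding is expressed as a within-array Z-score. This score was averaged across arrays of the same protein sequence at different concentrations or buffers and across linkers, and negative values can be read as non-binding.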

[2] = test system: Fuc(a1-2)Gal(b1-3)GalNAc(a1-3)[Fuc(a1-2)]Gal(b1-4)Glc
How it was run: as §1

[3] = test system: Fuc(a1-2)Gal(b1-3)GalNAc(b1-3)Gal(a1-4)Gal(b1-4)Glc
How it was run: as §1

[4] = test system: Fuc(a1-2)Gal(b1-3)GalNAc(b1-3)Gal
How it was run: as §1

[5] = test system: Fuc(a1-2)Gal(b1-3)GalNAc(b1-4)[Neu5Ac(a2-3)]Gal(b1-4)Glc
How it was run: as §1

Fuc(a1-2)Gal(b1-3)GalNAc = test system: Fuc(a1-2)Gal(b1-3)GalNAc
How it was run: as §1

[6] = test system: Fuc(a1-2)Gal(b1-3)GlcNAc(b1-2)Man(a1-3)[Fuc(a1-2)Gal(b1-3)GlcNAc(b1-2)Man(a1-6)]Man(b1-4)GlcNAc(b1-4)GlcNAc
How it was run: as §1

[7] = test system: Fuc(a1-2)Gal(b1-3)GlcNAc(b1-2)Man(a1-3)[Fuc(a1-2)Gal(b1-3)GlcNAc(b1-2)Man(a1-6)]Man(b1-4)GlcNAc(b1-4)[Fuc(a1-6)]GlcNAc
How it was run: as §1

[8] = test system: Fuc(a1-2)Gal(b1-3)GlcNAc(b1-3)Gal(b1-4)Glc
How it was run: as §1

[9] = test system: Fuc(a1-2)Gal(b1-3)GlcNAc(b1-3)GalNAc
How it was run: as §1

[10] = test system: Fuc(a1-2)Gal(b1-3)GlcNAc(b1-3)[Fuc(a1-2)Gal(b1-3)GlcNAc(b1-6)]GalNAc
How it was run: as §1

[11] = test system: Fuc(a1-2)Gal(b1-3)GlcNAc(b1-3)[Gal(b1-4)GlcNAc(b1-6)]Gal(b1-4)Glc
How it was run: as §1

[12] = test system: Fuc(a1-2)Gal(b1-3)GlcNAc(b1-3)[Neu5Ac(a2-6)Gal(b1-4)GlcNAc(b1-6)]Gal(b1-4)Glc
How it was run: as §1

[13] = test system: Fuc(a1-2)Gal(b1-3)GlcNAc6S
How it was run: as §1

Fuc(a1-2)Gal(b1-3)GlcNAc = test system: Fuc(a1-2)Gal(b1-3)GlcNAc
How it was run: as §1

[14] = test system: Fuc(a1-2)Gal(b1-3)[Fuc(a1-4)]GlcNAc(b1-2)Man(a1-3)[Fuc(a1-2)Gal(b1-3)[Fuc(a1-4)]GlcNAc(b1-2)Man(a1-3)]Man(b1-4)GlcNAc(b1-4)GlcNAc
How it was run: as §1

[15] = test system: Fuc(a1-2)Gal(b1-3)[Fuc(a1-4)]GlcNAc(b1-2)Man(a1-3)[Fuc(a1-2)Gal(b1-3)[Fuc(a1-4)]GlcNAc(b1-2)Man(a1-6)]Man(b1-4)GlcNAc(b1-4)[Fuc(a1-6)]GlcNAc(b1-4)[Fuc(a1-6)]GlcNAc
How it was run: as §1

[16] = test system: Fuc(a1-2)Gal(b1-3)[Fuc(a1-4)]GlcNAc(b1-3)[Fuc(a1-3)[Gal(b1-4)]GlcNAc(b1-6)]Gal(b1-4)Glc
How it was run: as §1

[17] = test system: Fuc(a1-2)Gal(b1-3)[Fuc(a1-4)]GlcNAc(b1-3)[Gal(b1-4)GlcNAc(b1-6)]Gal(b1-4)Glc
How it was run: as §1

[18] = test system: Fuc(a1-2)Gal(b1-3)[Fuc(a1-4)]GlcNAc
How it was run: as §1

[19] = test system: Fuc(a1-2)Gal(b1-4)Fuc(a1-3)]GlcNAc(b1-2)Man(a1-3)[Fuc(a1-2)Gal(b1-4)[Fuc(a1-3)]GlcNAc(b1-2)Man(a1-6)]Man(b1-4)GlcNAc(b1-4)GlcNAc
How it was run: as §1

Fuc(a1-2)Gal(b1-4)Glc6S = test system: Fuc(a1-2)Gal(b1-4)Glc6S
How it was run: as §1

[20] = test system: Fuc(a1-2)Gal(b1-4)GlcNAc(b1-2)Man(a1-3)[Fuc(a1-2)Gal(b1-4)GlcNAc(b1-2)Man(a1-6)]Man(b1-4)GlcNAc(b1-4)GlcNAc
How it was run: as §1

[21] = test system: Fuc(a1-2)Gal(b1-4)GlcNAc(b1-2)Man(a1-3)[Fuc(a1-2)Gal(b1-4)GlcNAc(b1-2)Man(a1-6)]Man(b1-4)GlcNAc(b1-4)[Fuc(a1-6)]GlcNAc
How it was run: as §1

[22] = test system: Fuc(a1-2)Gal(b1-4)GlcNAc(b1-2)Man
How it was run: as §1

[23] = test system: Fuc(a1-2)Gal(b1-4)GlcNAc(b1-2)[Fuc(a1-2)Gal(b1-4)GlcNAc(b1-4)]Man(a1-3)[Fuc(a1-2)Gal(b1-4)GlcNAc(b1-2)Man(a1-6)]Man(b1-4)GlcNAc(b1-4)GlcNAc
How it was run: as §1

[24] = test system: Fuc(a1-2)Gal(b1-4)GlcNAc(b1-3)Gal(b1-4)GlcNAc(b1-2)Man(a1-3)[Fuc(a1-2)Gal(b1-4)GlcNAc(b1-3)Gal(b1-4)GlcNAc(b1-2)Man(a1-6)]Man(b1-4)GlcNAc(b1-4)GlcNAc
How it was run: as §1

[25] = test system: Fuc(a1-2)Gal(b1-4)GlcNAc(b1-3)Gal(b1-4)GlcNAc(b1-3)Gal(b1-4)GlcNAc
How it was run: as §1

[26] = test system: Fuc(a1-2)Gal(b1-4)GlcNAc(b1-3)Gal(b1-4)GlcNAc
How it was run: as §1

[27] = test system: Fuc(a1-2)Gal(b1-4)GlcNAc(b1-3)GalNAc
How it was run: as §1

[28] = test system: Fuc(a1-2)Gal(b1-4)GlcNAc(b1-3)[Fuc(a1-2)Gal(b1-4)GlcNAc(b1-6)]GalNAc
How it was run: as §1

[29] = test system: Fuc(a1-2)Gal(b1-4)GlcNAc(b1-3)[Fuc(a1-3)[Gal(b1-4)]GlcNAc(b1-6)]Gal(b1-4)Glc
How it was run: as §1

MpAFP RI GFP (Marinomonas primoryensis)
glycan array binding signal (z-score) [1]: -0.595
glycan array binding signal (z-score) [2]: -0.554
glycan array binding signal (z-score) [3]: -0.144
glycan array binding signal (z-score) [4]: -0.277
glycan array binding signal (z-score) [5]: -0.548
glycan array binding signal (z-score) (Fuc(a1-2)Gal(b1-3)GalNAc): -0.385
glycan array binding signal (z-score) [6]: 1.38
glycan array binding signal (z-score) [7]: 0.906
glycan array binding signal (z-score) [8]: -0.496
glycan array binding signal (z-score) [9]: -0.256
glycan array binding signal (z-score) [10]: 0.462
glycan array binding signal (z-score) [11]: -0.01
glycan array binding signal (z-score) [12]: -0.127
glycan array binding signal (z-score) [13]: 0.096
glycan array binding signal (z-score) (Fuc(a1-2)Gal(b1-3)GlcNAc): -0.605
glycan array binding signal (z-score) [14]: 1.15
glycan array binding signal (z-score) [15]: 0.68
glycan array binding signal (z-score) [16]: -0.317
glycan array binding signal (z-score) [17]: -0.303
glycan array binding signal (z-score) [18]: -0.05
glycan array binding signal (z-score) [19]: 2.25
glycan array binding signal (z-score) (Fuc(a1-2)Gal(b1-4)Glc6S): 0.747
glycan array binding signal (z-score) [20]: -0.295
glycan array binding signal (z-score) [21]: 0.806
glycan array binding signal (z-score) [22]: 0.722
glycan array binding signal (z-score) [23]: 0.458
glycan array binding signal (z-score) [24]: 1.06
glycan array binding signal (z-score) [25]: 0.489
glycan array binding signal (z-score) [26]: -0.547
glycan array binding signal (z-score) [27]: -0.085
glycan array binding signal (z-score) [28]: -0.441
glycan array binding signal (z-score) [29]: -0.265
